Values joined by “and” are separate entries in the source; they are usually repeats but may differ in a detail not shown here. Equal entries are not always repeated. The list shows a part of the results. Further columns of the screen follow, without active or inactive calls. Compounds called inactive in the main read-out are mostly missing here. Words in brackets tell the shape of the fitted curve; partial curves, single points and poor fits give uncertain potencies.
Test: qHTS Assay for Lipid Storage Modulators in Drosophila S3 Cells;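 as to cell number change: cells counted by Cell Tracker Red CMTPX staining in the red channel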
Details: BODIPY lipid droplet fluorescence, 18-24 h; for cell number change: measured here: cell count max response, cells fed with added oleic acid
Method in brief: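 Drosophila S3 cells loaded with oleic acid (400 uM, as added) and compounds at several concentrations; lipid droplets imaged by 488-nm laser-scanning cytometry, 500–530 nm intensity and object ratio to cell channel. Percent activity normalized to 20 uM Triacsin C.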

[1] = measured here: cell number channel AC50, cells fed with added oleic acid
[2] = measured here: lipid fluorescence (Fed channel) AC50, cells fed with added oleic acid

| Structure (SMILES) | cell number change | AC50 [1] | AC50 [2] |
| --- | --- | --- | --- |
| COC(=O)CN1C(=O)[C@H]2[C@@H](c3ccc(C)o3)N3C(=O)CN(Cc4ccccc4)C(=O)[C@@]3(Cc3ccccc3)[C@H]2C1=O | 31.1% | 2.59 µM [rising, full curve] | 29.1 µM [rising, single point] |
| C/C(O)=C/c1nc2ccccc2[nH]c1=O | 0.987% | – | 4.11 µM [rising, single point] |
| Cc1ccccc1NC(=O)CN1C(=O)COc2ccc(S(=O)(=O)N3CCCC3)cc21 | 51.1% | 29.1 µM [rising, single point] | 25.9 µM [rising, single point] |
| COc1ccc(N2C(=O)CC(NNc3ncc(Cl)cc3Cl)C2=O)cc1 (centres undefined) | – | 0.82 µM [rising, full curve] | 20.6 µM [rising, partial curve] |
| COc1ccccc1C(=O)N/C(=C\c1ccc2c(c1)OCO2)C(=O)NCCc1nc2ccccc2[nH]1 | -39.8% | 1.84 µM [falling, partial curve, poor fit] | 4.61 µM [rising, partial curve] |
| O=c1c2cc(Cl)ccc2nc(-c2ccccc2)n1O | -35.6% | 5.8 µM [falling, full curve] | 3.26 µM [falling, single point] |
| Cc1ccc(NS(=O)(=O)c2ccc3c(c2)CC(=O)N3)cc1Cl | – | – | 0.103 µM [rising, full curve, poor fit] |
| CC1(C)Cc2c(sc3c2c2ncnn2c2nnc(SCC(=O)NCc4ccco4)n32)CO1 | 4.97% | – | 3.66 µM [falling, single point] |
| COc1ccc2c(c1)O[C@@H](c1cccc(C(F)(F)F)c1)[C@H](OC(=O)Nc1ccc(OC(F)F)cc1)C2=O | -11.5% | – | – |
| CCCn1c(SCC(=O)NCCc2ccccc2)nnc1-c1cccnc1 | 2.82% | – | 2.31 µM [rising, full curve, poor fit] |
| COc1ccc2ccccc2c1/C=N/Nc1cccc(C(=O)O)c1 | -23.6% | – | – |
| CCNC(=O)OCCC12CC3CC(CC(C3)C1)C2 | -32.2% | 13 µM [falling, single point] | 16.4 µM [falling, partial curve] |
| CC(C)(CO)NCc1cccs1 | 3.73% | – | 18.4 µM [rising, single point] |
| O=C(NCCC1=CCCCC1)c1ccc(Cl)c(S(=O)(=O)N2CCOCC2)c1 | – | – | 0.231 µM [falling, full curve] |
| COC(=O)C(NC(=O)c1ccc(F)cc1)(Nc1nc(C)cs1)C(F)(F)F (centres undefined) | – | 2.31 µM [rising, partial curve] | – |
| COc1ccc([N+](=O)[O-])cc1NC(=O)C(C)N(C)Cc1ccc(Br)cc1 (centres undefined) | 9.05% | 2.06 µM [falling, partial curve, poor fit] | – |
| CCOC(=O)c1nc(C)n(-c2cc(Cl)cc(Cl)c2)n1 | 30.9% | 16.4 µM [rising, single point] | 29.1 µM [rising, single point] |
| N=c1n(-c2ccccc2)c(O)cc(=O)n1-c1ccccc1 | -9.2% | – | 1.03 µM [falling, full curve, poor fit] |
| CC(OC(=O)Cc1ccc(F)cc1)C(=O)N1CCc2ccccc21 (centres undefined) | -50% | 3.66 µM [falling, full curve] | – |

| Structure (SMILES) | cell number change | AC50 [1] | AC50 [2] |
| --- | --- | --- | --- |
| CCCC(C)c1nnc(NC(=O)C2CC(=O)N(CCc3ccc(F)cc3)C2)s1 (centres undefined) | 16.1% | – | 0.58 µM [falling, single point] |
| CN(CC(=O)Nc1cccc(S(=O)(=O)NC2=NCCCCC2)c1)Cc1ccc(C(C)(C)C)cc1 | – | 6.51 µM [rising, single point] | – |
| Cc1ccn(CCC(=O)NC2CCCc3c2cnn3-c2cccc(C)c2C)n1 (centres undefined) | -7.65% | – | 6.51 µM [rising, single point] |
| CC(=O)c1sc(Nc2cccc(C)c2)nc1C | -51.7% | 0.116 µM [falling, full curve, poor fit] | 0.116 µM [falling, full curve, poor fit] |
| CCc1nc2ccccc2c(C(=O)OCCN2C(=O)c3ccccc3C2=O)c1C | 19.8% | 2.06 µM [rising, single point] | – |
| CC(C)OC(=O)C1C2C=CC3(CN(CC4CCCO4)C(=O)C13)O2 (centres undefined) | -18.7% and -24.9% | – | 29.1 µM [falling, single point] and 18.4 µM [falling, partial curve] |
| O=C(NCCN1C(=O)S/C(=C\c2ccccc2F)C1=O)C1CCCN1C(=O)c1cccs1 (centres undefined) | -1.44% | – | – |
| Cc1cccc([C@@H]2[C@@H]3C(=O)N(Cc4ccccc4)C(=O)[C@@H]3[C@]3(Cc4ccc(Cl)cc4)C(=O)N(c4cccc(Br)c4)C(=O)N23)c1 | 98.2% | 23.1 µM [rising, partial curve] | – |
| CCc1cc(C(=O)c2ccc(Br)cc2)c(NC(=O)CN(CC)CC)s1 | 0.525% | – | 29.1 µM [rising, single point] |
| CS(=O)(=O)N(CC(=O)Nc1ccc(Br)cc1F)C1CCCCC1 | -24.6% | – | 29.1 µM [falling, single point] |
| Cc1ccc(-c2nnc(NCc3nc4ccccc4[nH]3)c3ccccc23)cc1S(=O)(=O)N(C)C | -18.7% | – | 32.6 µM [falling, single point] |
| O=C(OCc1c(Cl)cccc1Cl)c1cccnc1Cl | – | – | 2.31 µM [rising, single point] |
| CCOc1ccc(NC(=S)NC(=O)Cc2ccccc2)cc1 | 21.2% | – | – |
| O=C(CN1CCCCC1)Nc1ccccc1Cl | 4.53% | – | – |
| Cc1ccccc1NC(=O)c1sc2nc[nH]c(=O)c2c1C | – | 0.116 µM [falling, partial curve, poor fit] | – |
| Cc1nnc(NC(=O)CSc2nnc(-c3ccco3)o2)s1 | -1.78% | – | 0.146 µM [falling, full curve, poor fit] |
| O=C(CN1C(=O)c2ccccc2C1=O)NCCc1c[nH]c2ccccc12 | -5.49% | – | – |
| COc1ccccc1N=NC1C(=O)N(C(N)=S)N=C1C (centres undefined) | -16.7% | – | 29.1 µM [falling, single point] |

Single records, from the list above.
CS(=O)(=O)N(CC(=O)Nc1ccc(Br)cc1F)C1CCCCC1 in the list: cell number change: -24.6%; AC50 [2]: 29.1 µM [falling, single point]
O=C(OCc1c(Cl)cccc1Cl)c1cccnc1Cl in the list: AC50 [2]: 2.31 µM [rising, single point]

From PubChem BioAssay AID2685 (National Center for Advancing Translational Sciences (NCATS), 2010)
